From the supplement of paper PMC10060354, “Discovery of a small molecule ligand of FRS2 that inhibits invasion and tumor growth” (Cellular Oncology, 2022)
Single values are uncertain, as repeats are few or missing.

Chains of the proteins cited; added tags and fusions are not shown. Lines headed by an entry give the natural chain unless they say otherwise; changes in a name come on top.
UniProt O75446: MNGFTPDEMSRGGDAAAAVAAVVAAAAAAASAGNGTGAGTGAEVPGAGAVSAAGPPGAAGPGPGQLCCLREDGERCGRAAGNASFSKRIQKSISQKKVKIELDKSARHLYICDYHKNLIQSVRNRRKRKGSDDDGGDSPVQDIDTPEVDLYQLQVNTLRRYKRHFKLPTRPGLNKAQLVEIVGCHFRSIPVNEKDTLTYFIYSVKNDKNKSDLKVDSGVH
A0A0U1RRE5, A0A0U1RRE5, UniProt A0A0U1RRE5, whole entry: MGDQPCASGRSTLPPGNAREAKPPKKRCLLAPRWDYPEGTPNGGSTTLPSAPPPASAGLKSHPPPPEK
A0A087WTH1, A0A087WTH1, UniProt A0A087WTH1, whole entry: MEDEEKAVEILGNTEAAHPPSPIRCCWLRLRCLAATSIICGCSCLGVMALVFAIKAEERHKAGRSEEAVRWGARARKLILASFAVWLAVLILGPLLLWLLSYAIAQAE
UniProt P07942: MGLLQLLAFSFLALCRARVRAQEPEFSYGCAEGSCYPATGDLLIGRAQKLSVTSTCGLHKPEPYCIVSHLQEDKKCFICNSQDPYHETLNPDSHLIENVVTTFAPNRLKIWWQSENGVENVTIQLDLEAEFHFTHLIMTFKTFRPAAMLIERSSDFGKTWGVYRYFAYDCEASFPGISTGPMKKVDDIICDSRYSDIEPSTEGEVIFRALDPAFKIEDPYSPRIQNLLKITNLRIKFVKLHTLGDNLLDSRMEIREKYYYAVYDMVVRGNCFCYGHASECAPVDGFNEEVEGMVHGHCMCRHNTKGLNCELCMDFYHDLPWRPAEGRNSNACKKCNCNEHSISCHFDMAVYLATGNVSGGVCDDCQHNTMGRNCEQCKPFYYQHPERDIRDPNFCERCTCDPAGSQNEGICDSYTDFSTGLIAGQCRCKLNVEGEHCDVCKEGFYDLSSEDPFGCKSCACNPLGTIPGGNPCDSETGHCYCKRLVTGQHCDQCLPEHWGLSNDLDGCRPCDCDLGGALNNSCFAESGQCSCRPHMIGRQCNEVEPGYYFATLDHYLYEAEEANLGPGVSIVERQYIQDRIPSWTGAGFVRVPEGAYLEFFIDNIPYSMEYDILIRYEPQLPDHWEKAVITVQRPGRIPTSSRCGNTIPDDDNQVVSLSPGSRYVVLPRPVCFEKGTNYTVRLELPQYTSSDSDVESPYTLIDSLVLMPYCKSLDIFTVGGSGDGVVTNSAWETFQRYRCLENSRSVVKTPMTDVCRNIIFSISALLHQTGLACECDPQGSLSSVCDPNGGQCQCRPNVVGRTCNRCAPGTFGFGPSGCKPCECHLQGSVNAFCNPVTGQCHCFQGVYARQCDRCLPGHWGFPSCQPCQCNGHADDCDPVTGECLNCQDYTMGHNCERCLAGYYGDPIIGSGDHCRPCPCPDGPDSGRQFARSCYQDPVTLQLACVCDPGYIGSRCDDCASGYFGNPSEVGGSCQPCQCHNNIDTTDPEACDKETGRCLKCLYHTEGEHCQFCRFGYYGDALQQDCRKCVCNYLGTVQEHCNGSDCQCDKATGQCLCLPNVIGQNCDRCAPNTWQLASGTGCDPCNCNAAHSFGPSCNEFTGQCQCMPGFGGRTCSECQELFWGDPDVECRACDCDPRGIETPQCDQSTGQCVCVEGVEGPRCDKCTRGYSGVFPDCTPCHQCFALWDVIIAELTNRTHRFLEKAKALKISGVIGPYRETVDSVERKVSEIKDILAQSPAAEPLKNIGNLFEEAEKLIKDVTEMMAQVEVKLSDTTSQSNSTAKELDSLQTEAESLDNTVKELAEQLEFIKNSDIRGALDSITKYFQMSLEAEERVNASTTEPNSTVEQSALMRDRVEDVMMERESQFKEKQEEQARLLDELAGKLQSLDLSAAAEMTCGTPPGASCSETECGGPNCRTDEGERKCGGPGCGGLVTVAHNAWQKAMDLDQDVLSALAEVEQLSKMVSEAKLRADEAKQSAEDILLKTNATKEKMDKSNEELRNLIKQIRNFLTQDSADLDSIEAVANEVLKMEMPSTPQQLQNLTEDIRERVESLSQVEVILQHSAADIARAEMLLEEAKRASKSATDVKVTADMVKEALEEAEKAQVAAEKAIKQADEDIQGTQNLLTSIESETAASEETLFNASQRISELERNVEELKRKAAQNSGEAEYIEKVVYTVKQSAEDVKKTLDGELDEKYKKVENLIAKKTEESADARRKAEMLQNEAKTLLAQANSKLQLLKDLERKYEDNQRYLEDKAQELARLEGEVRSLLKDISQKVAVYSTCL
UniProt Q15582: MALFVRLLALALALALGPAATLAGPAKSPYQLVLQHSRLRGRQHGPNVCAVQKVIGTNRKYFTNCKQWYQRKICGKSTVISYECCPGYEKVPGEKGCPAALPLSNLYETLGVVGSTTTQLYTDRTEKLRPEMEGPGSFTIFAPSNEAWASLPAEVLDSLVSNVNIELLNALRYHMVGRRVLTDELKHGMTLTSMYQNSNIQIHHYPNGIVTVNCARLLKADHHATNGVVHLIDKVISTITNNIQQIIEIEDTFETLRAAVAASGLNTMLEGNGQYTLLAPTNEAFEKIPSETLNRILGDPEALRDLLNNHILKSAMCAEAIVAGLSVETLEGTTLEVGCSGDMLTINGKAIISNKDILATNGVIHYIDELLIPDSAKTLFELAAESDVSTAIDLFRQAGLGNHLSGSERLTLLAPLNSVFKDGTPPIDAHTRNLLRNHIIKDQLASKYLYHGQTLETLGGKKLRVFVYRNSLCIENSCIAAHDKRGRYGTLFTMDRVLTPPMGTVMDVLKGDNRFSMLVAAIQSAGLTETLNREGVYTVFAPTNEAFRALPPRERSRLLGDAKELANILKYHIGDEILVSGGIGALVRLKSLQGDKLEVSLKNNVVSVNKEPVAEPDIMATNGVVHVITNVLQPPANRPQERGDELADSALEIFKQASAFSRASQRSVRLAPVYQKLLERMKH
UniProt Q9H903: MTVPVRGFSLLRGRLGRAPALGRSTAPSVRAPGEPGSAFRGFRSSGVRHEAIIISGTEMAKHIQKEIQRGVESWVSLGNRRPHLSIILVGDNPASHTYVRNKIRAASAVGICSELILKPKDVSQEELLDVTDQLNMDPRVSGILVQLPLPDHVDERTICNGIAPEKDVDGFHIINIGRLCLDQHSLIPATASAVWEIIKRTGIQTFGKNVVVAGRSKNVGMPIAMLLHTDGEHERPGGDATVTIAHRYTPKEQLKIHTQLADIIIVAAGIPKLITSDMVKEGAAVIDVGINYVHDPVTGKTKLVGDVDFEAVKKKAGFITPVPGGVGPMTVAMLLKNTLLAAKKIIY
UniProt O95684: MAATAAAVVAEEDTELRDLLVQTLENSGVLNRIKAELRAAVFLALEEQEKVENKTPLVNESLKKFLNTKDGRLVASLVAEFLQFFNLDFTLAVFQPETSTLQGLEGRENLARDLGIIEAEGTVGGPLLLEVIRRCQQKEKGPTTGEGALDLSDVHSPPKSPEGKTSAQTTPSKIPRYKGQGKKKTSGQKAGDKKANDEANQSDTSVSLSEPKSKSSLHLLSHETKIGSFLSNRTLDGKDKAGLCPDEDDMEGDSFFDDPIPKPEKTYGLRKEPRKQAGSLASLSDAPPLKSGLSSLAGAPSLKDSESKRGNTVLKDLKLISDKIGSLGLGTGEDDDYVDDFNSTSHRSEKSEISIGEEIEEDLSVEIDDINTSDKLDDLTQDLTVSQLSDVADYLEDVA
UniProt Q9NW08: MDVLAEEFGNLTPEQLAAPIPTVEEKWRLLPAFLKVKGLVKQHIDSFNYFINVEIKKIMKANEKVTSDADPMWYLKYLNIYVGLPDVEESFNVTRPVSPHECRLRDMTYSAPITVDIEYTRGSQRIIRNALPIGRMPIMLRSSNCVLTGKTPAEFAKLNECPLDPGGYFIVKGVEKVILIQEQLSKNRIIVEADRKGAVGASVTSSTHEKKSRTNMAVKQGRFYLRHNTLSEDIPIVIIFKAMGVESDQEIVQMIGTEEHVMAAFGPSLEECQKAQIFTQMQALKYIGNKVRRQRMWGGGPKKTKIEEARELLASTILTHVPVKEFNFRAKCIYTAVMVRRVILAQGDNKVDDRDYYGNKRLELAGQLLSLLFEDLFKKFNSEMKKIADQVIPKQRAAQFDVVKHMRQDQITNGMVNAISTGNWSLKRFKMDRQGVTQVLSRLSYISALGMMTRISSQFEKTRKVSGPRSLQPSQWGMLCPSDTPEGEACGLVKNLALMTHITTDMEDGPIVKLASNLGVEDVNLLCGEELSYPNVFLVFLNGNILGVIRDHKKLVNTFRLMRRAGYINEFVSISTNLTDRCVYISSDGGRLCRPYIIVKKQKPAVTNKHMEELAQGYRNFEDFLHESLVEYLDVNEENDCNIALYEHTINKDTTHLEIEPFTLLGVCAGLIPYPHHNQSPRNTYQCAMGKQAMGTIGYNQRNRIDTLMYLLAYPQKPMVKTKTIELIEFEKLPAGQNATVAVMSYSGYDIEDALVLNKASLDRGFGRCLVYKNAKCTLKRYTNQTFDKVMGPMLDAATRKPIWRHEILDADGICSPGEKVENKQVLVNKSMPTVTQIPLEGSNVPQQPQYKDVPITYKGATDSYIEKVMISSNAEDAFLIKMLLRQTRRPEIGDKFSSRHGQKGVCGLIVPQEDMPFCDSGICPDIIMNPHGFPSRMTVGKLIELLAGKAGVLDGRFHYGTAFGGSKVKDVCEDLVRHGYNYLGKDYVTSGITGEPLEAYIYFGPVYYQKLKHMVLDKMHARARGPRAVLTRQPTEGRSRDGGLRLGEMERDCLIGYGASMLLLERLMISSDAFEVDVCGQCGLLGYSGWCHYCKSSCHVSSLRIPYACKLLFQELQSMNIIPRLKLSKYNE
UniProt Q2UY09: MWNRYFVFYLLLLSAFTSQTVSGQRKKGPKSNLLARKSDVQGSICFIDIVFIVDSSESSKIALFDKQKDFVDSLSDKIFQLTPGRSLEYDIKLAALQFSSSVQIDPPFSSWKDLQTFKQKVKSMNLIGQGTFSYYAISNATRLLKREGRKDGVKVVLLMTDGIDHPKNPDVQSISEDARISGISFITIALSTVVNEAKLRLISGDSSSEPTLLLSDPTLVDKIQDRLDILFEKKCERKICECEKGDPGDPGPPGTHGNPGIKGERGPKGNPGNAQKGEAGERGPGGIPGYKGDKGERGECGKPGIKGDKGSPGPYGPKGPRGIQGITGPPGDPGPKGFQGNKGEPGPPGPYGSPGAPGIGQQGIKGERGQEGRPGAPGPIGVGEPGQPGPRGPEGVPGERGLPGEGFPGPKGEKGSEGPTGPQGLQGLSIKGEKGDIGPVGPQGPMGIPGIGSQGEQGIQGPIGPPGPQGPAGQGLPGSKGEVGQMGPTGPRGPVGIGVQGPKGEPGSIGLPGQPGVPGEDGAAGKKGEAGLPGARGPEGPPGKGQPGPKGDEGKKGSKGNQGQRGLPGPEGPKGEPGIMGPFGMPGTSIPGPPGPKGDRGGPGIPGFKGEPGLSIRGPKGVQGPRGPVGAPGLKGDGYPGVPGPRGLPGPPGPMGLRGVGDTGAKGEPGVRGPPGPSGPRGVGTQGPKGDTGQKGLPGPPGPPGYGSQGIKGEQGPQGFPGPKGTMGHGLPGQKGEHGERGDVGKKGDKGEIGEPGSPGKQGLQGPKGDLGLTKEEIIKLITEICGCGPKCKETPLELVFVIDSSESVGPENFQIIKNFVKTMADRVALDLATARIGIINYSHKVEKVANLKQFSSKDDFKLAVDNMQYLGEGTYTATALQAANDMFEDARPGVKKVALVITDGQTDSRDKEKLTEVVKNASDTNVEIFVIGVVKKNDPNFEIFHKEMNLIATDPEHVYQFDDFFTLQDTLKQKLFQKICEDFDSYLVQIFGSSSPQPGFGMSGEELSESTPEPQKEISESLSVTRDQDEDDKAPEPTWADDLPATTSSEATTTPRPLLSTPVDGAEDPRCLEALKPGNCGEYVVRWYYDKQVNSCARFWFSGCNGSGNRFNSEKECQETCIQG
UniProt Q9UKM7: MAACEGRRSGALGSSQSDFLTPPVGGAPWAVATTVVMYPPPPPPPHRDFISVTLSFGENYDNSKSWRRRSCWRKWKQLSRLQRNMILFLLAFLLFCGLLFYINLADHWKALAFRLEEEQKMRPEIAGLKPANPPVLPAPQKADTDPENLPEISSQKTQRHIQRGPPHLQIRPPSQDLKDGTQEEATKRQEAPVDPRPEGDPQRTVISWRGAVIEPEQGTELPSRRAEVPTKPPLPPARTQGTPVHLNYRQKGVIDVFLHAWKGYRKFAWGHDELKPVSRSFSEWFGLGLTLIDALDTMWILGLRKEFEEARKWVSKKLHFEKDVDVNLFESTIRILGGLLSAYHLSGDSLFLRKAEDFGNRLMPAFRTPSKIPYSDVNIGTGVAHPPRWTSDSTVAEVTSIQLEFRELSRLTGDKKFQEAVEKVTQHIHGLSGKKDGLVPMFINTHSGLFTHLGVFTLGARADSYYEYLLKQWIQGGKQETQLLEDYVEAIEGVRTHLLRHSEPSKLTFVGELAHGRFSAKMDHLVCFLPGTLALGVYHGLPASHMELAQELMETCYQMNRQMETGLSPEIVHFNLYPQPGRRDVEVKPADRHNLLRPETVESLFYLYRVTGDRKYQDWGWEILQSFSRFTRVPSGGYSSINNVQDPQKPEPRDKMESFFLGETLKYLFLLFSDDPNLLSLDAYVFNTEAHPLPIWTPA

Compound: [O-][N+](C(C1=C(C(O)=C2)NC(C(C=C3)=CC=C3Cl)C4C1C=CC4)=C2Cl)=O
Experiment: melting temperature shift (compound 7 minus DMSO); higher = compound stabilises the protein
Conditions: 10 µM
Experimental: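 Thermal proteome profiling (TMT mass spectrometry) in intact DAOY medulloblastoma cells or DAOY lysates treated with 10 µM compound 7 or DMSO, heated at 10 temperatures from 40.5 to 73.8 °C for 3 min. Melting curves were fitted with the Bioconductor TPP package, and the melting point difference between compound and vehicle is reported per protein (single curve per condition).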

[1] = system: intact DAOY cells, treatment time: 90 min, 37 °C
[2] = system: DAOY cell lysate, treatment time: 20 min, 4 °C

Target	melting temperature shift [1] [°C]	melting temperature shift [2] [°C]
UniProt A6NHL2	0.435	–
UniProt A6NHC0	-1.71	–
ENO3 (UniProt P13929)	–	-1.09
SLC38A2 (UniProt Q96QD8)	1.93	-0.142
PLEKHO2 (UniProt Q8TD55)	-0.038	-0.945
E2F3 (UniProt O00716)	–	0.289
MTMR10 (UniProt Q9NXD2)	–	-0.636
UniProt Q14146	–	0.376
ZNF668 (UniProt Q96K58)	–	3.6
PPP4C (UniProt P60510)	0.689	-1.46
MTX1 (UniProt Q13505)	-0.0211	1.28
STIM1 (UniProt Q13586)	0.706	2.43
KIF4A (UniProt O95239)	0.103	-1.12
CCDC88A (UniProt Q3V6T2)	–	-0.0396
FUBP1 (UniProt Q96AE4)	-0.127	0.218
UniProt Q14657	1.07	0.0971
BLMH (UniProt Q13867)	3.97	-0.234
SKA1 (UniProt Q96BD8)	0.057	-2.01
UniProt Q9H0Q0	-0.345	–
CKAP5 (UniProt Q14008)	-1.02	-0.716
PLK1 (UniProt P53350)	0.78	-0.142
UniProt Q9NX07	–	0.185
PDXK (UniProt O00764)	-0.352	-0.811
SMYD3 (UniProt Q9H7B4)	-1.57	-0.251

Target	melting temperature shift [1] [°C]	melting temperature shift [2] [°C]
GOLGA3 (UniProt Q08378)	0.543	-0.258
CNOT10 (UniProt Q9H9A5)	0.0548	-0.569
ATPAF1 (UniProt Q5TC12)	0.196	1.68
DHX37 (UniProt Q8IY37)	-2.12	-0.0581
EXOG (UniProt Q9Y2C4)	-1.57	3.69
A0AVI2	0.656	–
UniProt Q5VWK5	0.531	–
UniProt Q58EX7	–	-0.183
CNPY3 (UniProt Q9BT09)	–	2.93
FANCD2 (UniProt Q9BXW9)	1.2	-0.594
COG6 (UniProt Q9Y2V7)	-0.473	-0.402
UniProt A6NIN4	0.292	0.215
UniProt O75446	0.702	0.315
UniProt P80303	–	1.16
UniProt Q8N3V7	-2.4	–
UniProt P25774	-1.8	1.49
PRKCDBP (UniProt Q969G5)	2.38	0.372
EPHB1 (UniProt P54762)	-0.832	–
UniProt P52179	1.47	–
ATG101 (UniProt Q9BSB4)	–	-2.35
RPS13 (UniProt P62277)	-0.584	-0.247
A0A0U1RRE5, A0A0U1RRE5	–	2.3
TRMT11 (UniProt Q7Z4G4)	-1.54	-0.125
TMX3 (UniProt Q96JJ7)	-0.00202	1.49

Target	melting temperature shift [1] [°C]	melting temperature shift [2] [°C]
PIK3CD (UniProt O00329)	1.17	2.35
PUM2 (UniProt Q8TB72)	1.75	1.73
UniProt Q5TAT6	–	0.983
PLCG1 (UniProt P19174)	0.949	-1
A0A087WTH1, A0A087WTH1	–	-0.768
NDUFAB1 (UniProt O14561)	-2.26	3.32
LAMB1 (UniProt P07942)	0.131	0.878
VPS37B (UniProt Q9H9H4)	0.289	–
VAPB (UniProt O95292)	-0.55	1.15
UniProt Q9Y6X4	0.81	-1.32
UniProt Q7RTW8	-0.617	–
UniProt Q9UNW9	-0.343	–
RABAC1 (UniProt Q9UI14)	–	-2.79
EIF4G3 (UniProt O43432)	-0.118	-0.713
NUDT16 (UniProt Q96DE0)	-1.68	0.145
HSD17B4 (UniProt P51659)	-0.075	0.905
DOHH (UniProt Q9BU89)	2.81	-1.29
TMEM199 (UniProt Q8N511)	-1.18	–
MRPL9 (UniProt Q9BYD2)	-0.891	-0.743
UniProt Q12765	0.774	0.36
MRPS36 (UniProt P82909)	–	1.96
GNPDA1 (UniProt P46926)	-0.788	-0.596
SF1 (UniProt Q15637)	-0.798	-1.22
KIDINS220 (UniProt Q9ULH0)	0.548	0.7

Target	melting temperature shift [1] [°C]	melting temperature shift [2] [°C]
UniProt P78540	-2.11	1.52
HLTF (UniProt Q14527)	-0.5	-0.913
TP53BP1 (UniProt Q12888)	0.655	-0.625
THYN1 (UniProt Q9P016)	-0.313	0.186
RALB (UniProt P11234)	-0.96	2.54
MUL1 (UniProt Q969V5)	0.513	0.588
GNAO1 (UniProt P09471)	-0.946	0.239
PCM1 (UniProt Q15154)	-0.212	-0.412
WDR48 (UniProt Q8TAF3)	-0.327	-0.62
UniProt Q9NRX6	–	-0.845
PGM2L1 (UniProt Q6PCE3)	0.706	-0.728
ACAD9 (UniProt Q9H845)	-0.422	1.04
UniProt A2A2Y4	–	-2.11
SNAP23 (UniProt O00161)	–	-0.427
RTN4IP1 (UniProt Q8WWV3)	–	-0.47
UniProt P20336	-1.33	–
UniProt P38405	-0.197	–
UniProt Q9P003	-0.0849	0.222
GORASP2 (UniProt Q9H8Y8)	0.322	0.106
UniProt Q15582	0.833	0.87
GTF2A1 (UniProt P52655)	–	1.54
ALG13 (UniProt Q9NP73)	–	0.665
ZMYM2 (UniProt Q9UBW7)	–	0.189
UniProt Q92913	–	-0.63

Five records drawn at random from those above:
Target	melting temperature shift [1] [°C]	melting temperature shift [2] [°C]
UniProt A2A2Y4	–	-2.11
UniProt P78540	-2.11	1.52
ZMYM2 (UniProt Q9UBW7)	–	0.189
RTN4IP1 (UniProt Q8WWV3)	–	-0.47
MUL1 (UniProt Q969V5)	0.513	0.588

The list continues.

Target	melting temperature shift [1] [°C]	melting temperature shift [2] [°C]
UniProt M0R2J8	0.702	-0.647
UniProt P04350	-0.167	-0.431
JUNB (UniProt P17275)	-3.95	–
UniProt Q9H903	-1.73	–
CAPRIN1 (UniProt Q14444)	1.44	-2.63
FGFR1OP (UniProt O95684)	0.406	-1.9
CD151 (UniProt P48509)	–	2.58
CLIC4 (UniProt Q9Y696)	0.0554	-0.235
CASP3 (UniProt P42574)	-0.215	-0.996
UniProt Q8TEQ0	–	0.284
UniProt Q8N6L1	-0.329	0.628
EML3 (UniProt Q32P44)	1.22	-3.1
FAM234A (UniProt Q9H0X4)	-4.11	2.15
UniProt Q5T1J5	0.235	–
POLR3B (UniProt Q9NW08)	–	0.148
ABCF3 (UniProt Q9NUQ8)	0.789	-0.253
EXTL2 (UniProt Q9UBQ6)	–	0.433
UniProt O14757	-0.598	0.222
UniProt Q2UY09	–	1.55
MAN1B1 (UniProt Q9UKM7)	-1.44	-0.378
UniProt Q9UH62	0.963	1.41
GTF3C6 (UniProt Q969F1)	–	1.03
UniProt P62837	0.323	-1.23
